The values below come from PubChem BioAssay AID662 (National Center for Advancing Translational Sciences (NCATS), 2007).

Several values for one entry are separate records, joined by “and”; a condition that tells them apart may be missing. Equal values may be shown once. This is one part of the list. These are further read-outs of the screen, such as a control signal, another cell line or another target. No call is given for them. Most of these compounds were active or inconclusive in the main read-out, so they are no random draw. Words in brackets tell the shape of the fitted curve; partial curves, single points and poor fits give uncertain potencies.

This assay is described as follows: Cell signaling CRE-BLA (Fsk stim). The note with it: CHO CRE-bla reporter (cAMP response element driving beta-lactamase), forskolin EC10, beta-lactamase ratio; measured here: 460 nm blue channel. In outline:
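Cells were plated overnight at 37 °C, exposed to compound titrations plus EC10 NKH 477 for 3 h, then given CCF4 dye for 2 h at room temperature. Blue/green (460/530 nm) ratio was converted to %Activity and AC50 values calculated.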
The term AC50 denotes the concentration at which the activity in the assay is half-maximal. Take `CCc1c(C)nc2ncnn2c1N1CCC(C(=O)NCc2cccc(OC)c2)CC1`: the AC50 is 15.8 µM [rising, single point].
As to `Cc1ccc(-c2nnc3n2N=C(c2ccc(Br)cc2)CS3)cc1`, the AC50 was 12.6 µM [rising, partial curve].
On to `CCS(=O)(=O)N1CCCC(C(=O)NCc2ccc3c(c2)OCO3)C1` (centres undefined), for which the AC50 was 5.01 µM [rising, single point].
For the molecule `O=c1c(O)c(-c2ccc(O)c(O)c2)oc2cc(O)cc(O)c12`, the AC50 is 20 µM [falling, partial curve] and 15.8 µM [falling, partial curve, poor fit].
In the case of `COC(=O)Cc1cc(=O)n(-c2nc3ccccc3s2)[nH]1`, the half-maximal activity concentration (AC50) is 15.8 µM [falling, partial curve].
As to `CCn1c(=O)cc(OCC(=O)Nc2ccccc2C#N)c2ccccc21`, the concentration at half-maximal activity (AC50) is 5.01 µM [rising, partial curve].
Consider `CC(=O)c1cccc(NC(=O)CN(c2ccc(F)cc2)S(C)(=O)=O)c1`, for which the AC50 was 15.8 µM [rising, partial curve].
The same measure for `CCOC(=O)CCc1c(C)nc2ncnn2c1C`: 0.398 µM [falling, single point]; for `CCC(C)C(NC(=O)C1CCC(C)CC1)C(=O)NCc1cccnc1` (centres undefined): 0.2 µM [falling, full curve, poor fit].
For `Cn1c(=O)c2c(n(C)c1=O)=NC1(CCCCC1)N=2`, the AC50 is 2.51 µM [falling, full curve, poor fit].
In the case of `CCOC(=O)c1ccccc1NC(=O)CSc1nc2ccccc2o1`, the AC50 is 15.8 µM [rising, single point].
For the molecule `CN(C)c1ccc(-c2ccc3ncnc(NCc4ccccc4)c3c2)cc1`, the AC50 is 3.16 µM [rising, single point].
Regarding `COc1ccc(CN2CCN(c3ncccn3)CC2)c(OC)c1`, the AC50 is 0.251 µM [rising, full curve, poor fit].
In the case of `CSCCC(NS(=O)(=O)c1ccc(Cl)cc1)C(=O)OCC(=O)N1CCOCC1` (centres undefined), the concentration at half-maximal activity (AC50) is 5.01 µM [falling, single point].
On to `O=C(Nc1nc(-c2cccs2)cs1)c1ccc(Cl)s1`, for which the AC50 was 25.1 µM [falling, single point].
The same measure for `Cc1cccc(N(C)c2cc(C)nc3nc(C)nn23)c1`: 10 µM [rising, partial curve]; for `Cc1c(C)n(Cc2ccccc2)c2ncnc(N)c12`: 2.51 µM [falling, partial curve].
On to `CC(=O)NCCNc1ncnc2ccc(-c3ccccc3Cl)cc12`, for which the AC50 is 10 µM [rising, partial curve].
In the case of `CCOc1ccc(OCC)c(NC(=O)c2ccc(CNc3c(N4CCOCC4)c(=O)c3=O)cc2)c1`, the AC50 is 6.31 µM [rising, partial curve].
Consider `COC(=O)CCC(=O)Nc1sc2c(c1C#N)CCCC2`, for which the AC50 is 25.1 µM [rising, single point].
The same measure for `COc1ccc(NC(=O)C2CCCN2c2ccc(OC)c(OC)c2)cc1OC` (centres undefined): 5.01 µM [rising, partial curve].
Consider `CCNc1ncc2nc(-c3cccs3)c(=O)n(-c3ccccc3)c2n1`, for which the AC50 was 2 µM [rising, full curve].
For the molecule `CSc1ccc(C2C(C#N)=C(N)Oc3cc4c(cc32)OCO4)cc1` (centres undefined), the concentration at half-maximal activity (AC50) was 12.6 µM [rising, single point].
For the molecule `O=C(CCCn1c(=O)c2ccccc2n(Cc2ccccc2)c1=O)NCc1ccco1`, the AC50 is 25.1 µM [rising, single point].
For `COc1ccccc1CNC(=O)CNC(=O)Cn1cnc2ccccc2c1=O`, the AC50 is 0.501 µM [falling, full curve].
The same measure for `COc1cc(C(c2sc3nc(C)nn3c2O)N2CC(C)OC(C)C2)cc(OC)c1OC` (centres undefined): 10 µM [rising, partial curve]; for `N#Cc1nc(-c2ccco2)oc1N1CCCC1`: 10 µM [rising, partial curve].
Turning to `C/C=C/Cn1c(N(C)Cc2ccccc2)nc2c1c(=O)[nH]c(=O)n2C`, the AC50 was 6.31 µM [rising, partial curve].
Regarding `COc1ccc(-n2c(=O)c3c4c(sc3n(CC(=O)NCc3ccco3)c2=O)CCC4)c(OC)c1`, the concentration at half-maximal activity (AC50) was 0.794 µM [rising, full curve].
As to `COc1ccc(OC)c(NC=C2C(=O)OC(C)(C)OC2=O)c1`, the half-maximal activity concentration (AC50) was 25.1 µM [rising, single point].
For `CCOC(=O)c1c(NC(=O)CN2CCCCC2)sc2c1CCCC2O` (centres undefined), the concentration at half-maximal activity (AC50) was 7.94 µM [rising, partial curve].
As for `O=C(CN1CCN(c2ccccn2)CC1)Nc1ccc(Cl)c(C(F)(F)F)c1`, the AC50 was 25.1 µM [falling, single point].
On to `COc1cccc(C(=O)CSc2nc3ccccc3n2CC(=O)N2CCOCC2)c1`, for which the concentration at half-maximal activity (AC50) is 10 µM [rising, partial curve].
`COc1cccc(Cn2c(=O)c(C)nc3cnc(N4CCOCC4)nc32)c1`: the half-maximal activity concentration (AC50) was 3.16 µM [rising, full curve].
Turning to `CCOc1ccc(-c2cc(CCCC(=O)NCCCOC)no2)cc1`, the AC50 is 0.316 µM [falling, partial curve].
`COc1ccc(NC(C)=O)c2nc(C)c(C)nc12`: the AC50 is 12.6 µM [rising, single point].
The same measure for `Cc1cccc(CNc2ncnc3ccc(-c4ccccc4C#N)cc23)c1`: 3.16 µM [rising, full curve, poor fit]; for `CC(=O)Nc1coc2ccc(Br)cc12`: 31.6 µM [falling, partial curve]; for `CSc1ccc(-c2c(C#N)c(N)nc3c2CCCC3)cc1`: 7.94 µM [falling, partial curve].
On to `CCN(CC)c1nc(Nc2ccc(Cl)cc2)nc(OCC#N)n1`, for which the AC50 is 5.01 µM [rising, full curve].
Take `CN(C)c1cccc(-c2nnc(SCCCC#N)o2)c1`: the concentration at half-maximal activity (AC50) is 0.631 µM [falling, full curve, poor fit].
As for `COc1ccc(C(=O)Oc2c(C)occc2=O)cc1OC`, the concentration at half-maximal activity (AC50) is 10 µM [rising, partial curve].
For the molecule `CCCCC(CC)Cn1c(N)c(C#N)c2nc3ccccc3nc21` (centres undefined), the half-maximal activity concentration (AC50) is 12.6 µM [rising, partial curve].
On to `CCN1C=C(C(=O)OC)C(c2cccc(C)c2)C(C(=O)OC)=C1`, for which the AC50 is 10 µM [rising, partial curve].
`CCOC(=O)COc1ccc2c(c1)C(=O)CC(C)(C)O2`: the concentration at half-maximal activity (AC50) was 25.1 µM [rising, single point].
With `CC/C(=C(\c1ccccc1)c1ccc(OCCN(C)C)cc1)c1ccccc1`, the concentration at half-maximal activity (AC50) was 31.6 µM [falling, single point].
In the case of `O=C(OCCNC(=O)c1ccc2ccccc2n1)c1cccnc1`, the AC50 is 12.6 µM [rising, partial curve].
The same measure for `CCc1oc2ccccc2c1C(=O)c1cc(Br)c(O)c(Br)c1`: 5.01 µM [rising, single point].
Turning to `COc1nc(-c2ccccc2)ccc1-c1noc(-c2ccccc2)n1`, the AC50 was 3.98 µM [rising, partial curve].
For `Cc1cccc(C)c1OCc1nnc2c3cnn(C)c3ncn12`, the AC50 was 12.6 µM [rising, single point].
On to `O=C(NCC1CCCO1)C1CCC(N2C(=O)c3ccccc3C2=O)CC1` (centres undefined), for which the AC50 is 0.794 µM [rising, full curve].
In the case of `CC(C)(C)c1ccc(OCC(=O)NCc2ccco2)c(Br)c1`, the AC50 was 10 µM [falling, partial curve].
For `COc1ccc(Cl)cc1NC(=O)CSc1nncn1-c1cccnc1`, the AC50 was 6.31 µM [rising, partial curve].
As to `C=C(C)COc1ccc(-c2n[nH]c(C)c2Oc2ccccc2OC)c(O)c1`, the AC50 is 10 µM [falling, partial curve].
On to `Cc1ccc(C)c(N2CCN(C(=O)c3ccc(CS(=O)(=O)c4ccccc4C)o3)CC2)c1`, for which the AC50 is 10 µM [falling, single point].
As to `Cc1csc2nc(CSc3nc4ccccc4o3)c(Br)n12`, the AC50 is 2.51 µM [rising, full curve, poor fit].
The same measure for `CCS(=O)(=O)N1CCC(C(=O)NCc2ccccc2OC)CC1`: 7.94 µM [falling, partial curve, poor fit]; for `CCn1c(-c2cc(OC)c(OC)c(OC)c2)n[nH]c1=S`: 12.6 µM [rising, single point].
The same measure for `CC(C)COc1ccc(C(=O)OCCN2CCOCC2)cc1`: 3.16 µM [falling, single point]; for `Cc1cc(N2CCCCC2)nc(SCc2ccc(C#N)cc2)n1`: 10 µM [rising, partial curve].
The same measure for `COC(=O)c1nnn(-c2nonc2N)c1CSc1ccccn1`: 3.98 µM [rising, partial curve]; for `COC(=O)c1c(N)c(C#N)c(C)n1-c1ccccc1`: 20 µM [rising, single point]; for `O=C(Nc1ccccc1-c1ccccc1)c1cnccn1`: 12.6 µM [rising, partial curve].
As to `COC(=O)c1sccc1NC(=O)c1ccncc1`, the AC50 is 6.31 µM [rising, partial curve].
In the case of `Nn1cnnc1SCC(=O)Nc1ccc(C2CCCCC2)cc1`, the concentration at half-maximal activity (AC50) was 15.8 µM [falling, single point].
For `O=C(CCS(=O)(=O)c1cccc2nonc12)N1CCN(c2ccc(F)cc2)CC1`, the concentration at half-maximal activity (AC50) is 0.00398 µM [falling, full curve, poor fit].
Turning to `Cc1cccn2c(=O)c3cc(C#N)c(=NC(=O)c4ccncc4)n(CCCOC(C)C)c3nc12`, the AC50 was 12.6 µM [rising, partial curve].
As to `CCCCCNC(=O)c1ccc2c(=O)[nH]c3c(C(=O)NCC4CCCO4)sc(=S)n3c2c1` (centres undefined), the AC50 is 0.00398 µM [falling, full curve, poor fit].
For `C/C(Cl)=C/Cn1c(SC(C)C)nc2c1c(=O)[nH]c(=O)n2C`, the AC50 was 5.01 µM [rising, partial curve].
